{"sequences": {"note": "Sequences of proteins named here, by UniProt entry; tags and fusion partners are left off.", "UniProt P05177, whole entry, looked up": "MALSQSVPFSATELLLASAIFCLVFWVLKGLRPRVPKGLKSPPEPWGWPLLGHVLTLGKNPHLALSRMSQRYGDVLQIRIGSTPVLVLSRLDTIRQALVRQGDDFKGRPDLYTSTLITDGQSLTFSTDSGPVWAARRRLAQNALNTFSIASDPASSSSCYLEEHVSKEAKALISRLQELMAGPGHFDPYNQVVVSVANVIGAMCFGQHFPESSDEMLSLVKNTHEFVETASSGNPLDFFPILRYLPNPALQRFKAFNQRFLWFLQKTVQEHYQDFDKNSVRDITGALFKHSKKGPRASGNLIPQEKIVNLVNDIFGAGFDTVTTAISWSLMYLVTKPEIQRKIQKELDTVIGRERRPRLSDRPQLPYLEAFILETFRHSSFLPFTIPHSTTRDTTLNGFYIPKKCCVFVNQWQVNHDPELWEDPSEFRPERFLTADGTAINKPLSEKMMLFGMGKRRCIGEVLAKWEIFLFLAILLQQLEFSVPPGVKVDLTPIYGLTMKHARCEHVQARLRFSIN"}, "source": "PubChem BioAssay AID1851", "about": "(National Center for Advancing Translational Sciences (NCATS), 2009)", "note": "Screen size: about 16,000 compounds; about 5,700 (36%) were called active. This list was built around the results that the source calls inconclusive (neither active nor inactive); the mix of calls is not that of the screen. Calls come from the whole dose curve; as a rule, active = well fitted curve in the direction sought with a large enough effect; inconclusive = small, poorly fitted or top-dose-only effect, or effect the other way; inactive = no such curve, though single readings can be large or run the other way. A potency beside an inconclusive call is a rough fit, not a confirmed value. % is set by controls: 0 for no effect and ±100 for the full control effect."}
{"biological_target": "Cytochrome P450 1A2 (Homo sapiens) (UniProt P05177)", "experiment": "Cytochrome panel assay with activity outcomes", "details": "recombinant CYP, pro-luciferin dealkylation, luminescence, p450-cyp1a2; activity, negative = inhibition: at 2.29 µM (top of the series)"}
{"smiles": "O=C(O)c1cc[c]([Hg][S]c2ncnc3nc[nH]c23)cc1", "AC50": "inconclusive: 0.316 µM [falling, partial curve]"}
{"smiles": "Nc1ccccc1O.O.O=C(O)[C@H]1[O][Sb][O][C@H]1C(=O)O", "activity, negative = inhibition": "inconclusive: -23.1% [single point]"}
{"smiles": "C[C@@H](O)CN(CCN(C[C@@H](C)O)C[C@@H](C)O)C[C@@H](C)O.O=[N+]([O-])O.[Cu]", "AC50": "inconclusive: 5.01 µM [falling, partial curve]"}
